# Laboratory results as given in paper PMC4619884.
# Protein sequences, listed by entry. Tags and fused reporters are not part of them.
# UniProt P47746: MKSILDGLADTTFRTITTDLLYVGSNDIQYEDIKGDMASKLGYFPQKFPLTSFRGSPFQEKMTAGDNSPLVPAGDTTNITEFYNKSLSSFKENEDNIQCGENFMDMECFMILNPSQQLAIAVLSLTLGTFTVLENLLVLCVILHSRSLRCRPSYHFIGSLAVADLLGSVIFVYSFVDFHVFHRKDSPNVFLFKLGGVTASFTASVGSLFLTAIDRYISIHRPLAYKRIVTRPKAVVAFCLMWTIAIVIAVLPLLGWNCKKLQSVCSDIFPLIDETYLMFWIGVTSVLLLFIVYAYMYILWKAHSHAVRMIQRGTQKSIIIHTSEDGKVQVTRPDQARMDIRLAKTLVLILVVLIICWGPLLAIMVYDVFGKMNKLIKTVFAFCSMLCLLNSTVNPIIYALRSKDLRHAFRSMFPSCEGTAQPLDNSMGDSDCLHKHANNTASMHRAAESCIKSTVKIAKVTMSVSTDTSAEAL
# UniProt Q5SQX6: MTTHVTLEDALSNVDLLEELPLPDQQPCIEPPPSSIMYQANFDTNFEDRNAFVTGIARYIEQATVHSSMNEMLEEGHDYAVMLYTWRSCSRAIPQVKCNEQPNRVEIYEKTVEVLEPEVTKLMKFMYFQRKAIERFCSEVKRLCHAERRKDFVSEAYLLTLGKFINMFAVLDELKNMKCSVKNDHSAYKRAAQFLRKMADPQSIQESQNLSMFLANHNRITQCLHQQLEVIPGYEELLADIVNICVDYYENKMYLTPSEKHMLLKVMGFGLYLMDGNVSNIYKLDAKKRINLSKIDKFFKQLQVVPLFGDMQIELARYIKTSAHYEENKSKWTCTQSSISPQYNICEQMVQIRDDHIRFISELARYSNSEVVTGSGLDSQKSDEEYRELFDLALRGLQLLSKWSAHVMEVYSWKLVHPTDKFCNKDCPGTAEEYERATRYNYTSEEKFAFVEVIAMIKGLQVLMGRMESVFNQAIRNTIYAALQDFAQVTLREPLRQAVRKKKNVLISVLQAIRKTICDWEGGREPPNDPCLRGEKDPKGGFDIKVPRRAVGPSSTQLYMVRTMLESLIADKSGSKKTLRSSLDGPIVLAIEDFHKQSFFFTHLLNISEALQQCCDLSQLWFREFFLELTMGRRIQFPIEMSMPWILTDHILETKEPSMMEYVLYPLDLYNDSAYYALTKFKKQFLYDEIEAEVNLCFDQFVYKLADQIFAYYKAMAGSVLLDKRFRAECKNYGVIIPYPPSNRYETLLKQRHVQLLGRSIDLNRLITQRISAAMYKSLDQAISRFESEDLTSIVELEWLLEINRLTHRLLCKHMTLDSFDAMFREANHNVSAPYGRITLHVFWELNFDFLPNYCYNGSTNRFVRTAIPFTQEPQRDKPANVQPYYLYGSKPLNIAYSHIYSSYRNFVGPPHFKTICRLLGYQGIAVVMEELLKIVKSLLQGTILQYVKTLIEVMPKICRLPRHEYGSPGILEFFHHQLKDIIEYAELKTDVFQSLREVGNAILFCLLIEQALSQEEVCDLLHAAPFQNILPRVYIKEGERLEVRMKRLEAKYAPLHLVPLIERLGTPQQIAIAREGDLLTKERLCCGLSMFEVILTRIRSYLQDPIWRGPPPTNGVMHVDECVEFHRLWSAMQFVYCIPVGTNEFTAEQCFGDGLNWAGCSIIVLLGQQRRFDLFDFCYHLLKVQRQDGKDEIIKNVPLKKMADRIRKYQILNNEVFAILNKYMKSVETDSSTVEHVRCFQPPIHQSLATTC
# Like-named read-outs stand apart in the source and are kept apart here. No constants are given. Whether binding was seen depends on the method and setting. In cells and extracts the contact can be indirect. Some entries that bind do so weakly or less than the wild type.
# B1: NCK-associated protein 1 (NCKAP1), endogenous in mouse cortex (protein, UniProt P28660 1-1128)
# chain: MSRSVLQPSQQKLAEKLTILNDRGVGMLTRLYNIKKACGDPKAKPSYLIDKNLESAVKFIVRKFPAVETRNNNQQLAQLQKEKSEILKNLALYYFTFVDVMEFKDHVCDLLNTIDVCQVFFDITVNFDLTKNYLDLTVTYTTLMILLSRIEERKAIIGLYNYAHEMTHGASDREYPRLGQMIVDYENPLKKMMEEFVPHSKSLSDALISLQMVYPRRNLSADQWRNAQLLSLISAPSTMLNPAQSDTMPCEYLSLDAMEKWIIFGFILCHGMLNTEATALNLWKLALQSSSCLSLFRDEVFHIHKAAEDLFVNIRGYNKRINDIRECKEAAVSHAGSMHRERRKFLRSALKELATVLSDQPGLLGPKALFVFMALSFARDEIIWLLRHADNMPKKSADDFIDKHIAELIFYMEELRAHVRKYGPVMQRYYVQYLSGFDAVVLNELVQNLSVCPEDESIIMSSFVNTMTSLSVKQVEDGEVFDFRGMRLDWFRLQAYTSVSKASLSLADHRELGKMMNTIIFHTKMVDSLVEMLVETSDLSIFCFYSRAFEKMFQQCLELPSQSRYSIAFPLLCTHFMSCTHELCPEERHHIGDRSLSLCNMFLDEMAKQARNLITDICTEQCTLSDQLLPKHCAKTISQAVNKKSKKQTGKKGEPEREKPGVESMRKNRLVVTNLDKLHTALSELCFSINYVPNMAVWEHTFTPREYLTSHLEIRFTKSIVGMTMYNQATQEIAKPSELLTSVRAYMTVLQSIENYVQIDITRVFNNVLLQQTQHLDSHGEPTITSLYTNWYLETLLRQVSNGHIAYFPAMKAFVNLPTENELTFNAEEYSDISEMRSLSELLGPYGMKFLSESLMWHISSQVAELKKLVVENVDVLTQMRTSFDKPDQMAALFKRLSSVDSVLKRMTIIGVILSFRSLAQEALRDVLSYHIPFLVSSIEDFKDHIPRETDMKVAMNVYELSSAAGLPCEIDPALVVALSSQKSENISPEEEYKIACLLMVFVAVSLPTLASNVMSQYSPAIEGHCNNIHCLAKAINQIAAALFTIHKGSIEDRLKEFLALASSSLLKIGQETDKTTTRNRESVYLLLDMIVQESPFLTMDLLESCFPYVLLRNAYHAVYKQSVTSSA
# B2: Wiskott-Aldrich syndrome protein-family verprolin-homologous protein 1 (WAVE1), endogenous in mouse cortex (protein, UniProt Q8R5H6 1-559)
# chain: MPLVKRNIDPRHLCHTALPRGIKNELECVTNISLANIIRQLSSLSKYAEDIFGELFNEAHSFSFRVNSLQERVDRLSVSVTQLDPKEEELSLQDITMRKAFRSSTIQDQQLFDRKTLPIPLQETYDVCEQPPPLNILTPYRDDGKEGLKFYTNPSYFFDLWKEKMLQDTEDKRKEKRKQKQKNLDRPHEPEKVPRAPHDRRREWQKLAQGPELAEDDADLLHKHIEVANGPASHYETRPQTYVDHMDGSYSLSALPFSQMSELLTRAEERVLVRPHEPPPPPPMHGAGDAKPTPTCISSATGLIENRPQSPAAGRTPVFVSPTPPPPPPPLPSALSTSSLRASMTSTPPPPVPPPPPPPATALQAPAVPPPPAPLQIAPGVLHPAPPPIAPPLVQPSPPVARAAPVCETVPVHPLPQGEVQGLPPPPPPPPLPPPGIRPSSPVAVAALAHPPSGLHPAPSTAPGPHAPLMPPSPPSQVLPASEPKRHPSTLPVISDARSVLLEAIRKGIQLRKVEEQREQEAKHERIENDVATILSRRIAVEYSDSEDDSEFDEVDWLE
# How the values were obtained:
# [1] = molecular target: EGFP-tagged CB1 receptor, transfected in HEK293 cells (UniProt P47746); assay: co-IP; GFP-nanotrap on HEK293 cells transfected with CB1-EGFP or GFP alone, solubilised with Na-cholate; immunoblot for endogenous WAVE1
# [2] = molecular target: EGFP-tagged CB1 receptor (cannabinoid type 1 receptor), expressed from rAAV in mouse cortex (UniProt P47746); assay: co-IP; GFP-nanotrap beads on Na-cholate-solubilised cortical membrane fractions of mice expressing CB1-EGFP or GFP (control), at least 2 h at 4°C; immunoblot
# [3] = molecular target: EGFP-tagged CB1 receptor (cannabinoid type 1 receptor), expressed from rAAV in mouse cortex (UniProt P47746); assay: as above; remark: listed apart in the source
# [4] = molecular target: endogenous CB1 receptor (cannabinoid type 1 receptor) of mouse cortex (mouse (endogenous in cortex)) (UniProt P47746); assay: co-IP; protein A/G PLUS agarose beads coupled with rabbit α-CB1 on solubilised cortical lysates of wild-type or CB1-/- mice, overnight at 4°C; immunoblot for WAVE1
Molecule,binding [2],binding [3],further results
"WAVE1, endogenous in HEK293 cells (from UniProt Q92558 1-559)",–,–,binding [1]: binds
"cytoplasmic FMR1-interacting protein 2 (CYFIP2), endogenous in mouse cortex (from UniProt Q5SQX6 1-1253)",binds,–,–
endogenous CB1 receptor (cannabinoid type 1 receptor) of mouse cortex (from UniProt P47746 1-473),binds,–,–
B1,–,binds,–
B2,–,binds,binding [4]: binds
